Test results as given in patent US10214514B2, “Hedgehog antagonists having zinc binding moieties” (Curis, Inc., priority 2011, dated 2019).

Tested on: Hedgehog pathway signaling (Gli-Luc response, OCT-SHH activated 10 Tl/2 (s12) cells)
Test: Hedgehog signalling inhibition, Gli-Luc reporter assay (Hh Reporter assay)
Assay type: cell-based
Settings: numeric values for reference compounds
Method: Example 17: An In Vitro Assay which Determines the Ability of a Test Compound to Inhibit Hedgehog Signalling
Compounds to be tested were dissolved in DMSO to a concentration of 10 mM, and stored at −20° C. To activate the Hedgehog pathway in the assay cells, an octylated (lipid-modified) form of the N-terminal fragment of the Sonic Hedgehog protein (OCT-SHH) was used. This N-terminal SHH fragment is produced bacterially. See, for example, Taylor F R, et al., Biochemistry, 2001, 40: 4359-71.
Compounds were tested in the“Gli-Luc” assay below, using the cell line 10 Tl/2 (s12), wherein the cells contain a Hedgehog-responsive reporter construct utilizing Luciferase as the reporter gene. In this way, Hedgehog pathway signaling activity is measured via the Gli-Luc response.
10 Tl/2 (s12) cells were plated in a 96-well micro-titer plate (MTP) at 20,000 cells/well in full medium [DMEM with 10% FBS]. Then plates were placed in the incubator for incubation overnight (0/N), at 37° C. and 5% CO2. After 24 h, the medium was replaced with Luciferase-assay medium (DMEM with 0.5% FBS). […]
Wells were washed once with assay buffer [PBS+1 mM Mg^2+ and 1 mM Ca^2+]. […] Plates were incubated at room temperature (RT) for about 30 minutes after which the signals were read, again at RT, on a Topcount (Packard). […]

Compound: O=C(CCCCCCC(=O)Nc1ccccc1)NO [SAHA, suberoylanilide hydroxamic acid, reference compound]
- IC50: 477 nM
